From paper PMC4627417 come the findings set out here.

To fix the notation:
B1: CPSF2 (protein, UniProt Q9P2I0 1-782)
chain: MTSIIKLTTLSGVQEESALCYLLQVDEFRFLLDCGWDEHFSMDIIDSLRKHVHQIDAVLLSHPDPLHLGALPYAVGKLGLNCAIYATIPVYKMGQMFMYDLYQSRHNTEDFTLFTLDDVDAAFDKIQQLKFSQIVNLKGKGHGLSITPLPAGHMIGGTIWKIVKDGEEEIVYAVDFNHKREIHLNGCSLEMLSRPSLLITDSFNATYVQPRRKQRDEQLLTNVLETLRGDGNVLIAVDTAGRVLELAQLLDQIWRTKDAGLGVYSLALLNNVSYNVVEFSKSQVEWMSDKLMRCFEDKRNNPFQFRHLSLCHGLSDLARVPSPKVVLASQPDLECGFSRDLFIQWCQDPKNSIILTYRTTPGTLARFLIDNPSEKITEIELRKRVKLEGKELEEYLEKEKLKKEAAKKLEQSKEADIDSSDESDIEEDIDQPSAHKTKHDLMMKGEGSRKGSFFKQAKKSYPMFPAPEERIKWDEYGEIIKPEDFLVPELQATEEEKSKLESGLTNGDEPMDQDLSDVPTKCISTTESIEIKARVTYIDYEGRSDGDSIKKIINQMKPRQLIIVHGPPEASQDLAECCRAFGGKDIKVYMPKLHETVDATSETHIYQVRLKDSLVSSLQFCKAKDAELAWIDGVLDMRVSKVDTGVILEEGELKDDGEDSEMQVEAPSDSSVIAQQKAMKSLFGDDEKETGEESEIIPTLEPLPPHEVPGHQSVFMNEPRLSDFKQVLLREGIQAEFVGGVLVCNNQVAVRRTETGRIGLEGCLCQDFYRIRDLLYEQYAIV
B2: CPSF1 (protein, UniProt Q10570 1-1443)
chain: MYAVYKQAHPPTGLEFSMYCNFFNNSERNLVVAGTSQLYVYRLNRDAEALTKNDRSTEGKAHREKLELAASFSFFGNVMSMASVQLAGAKRDALLLSFKDAKLSVVEYDPGTHDLKTLSLHYFEEPELRDGFVQNVHTPRVRVDPDGRCAAMLVYGTRLVVLPFRRESLAEEHEGLVGEGQRSSFLPSYIIDVRALDEKLLNIIDLQFLHGYYEPTLLILFEPNQTWPGRVAVRQDTCSIVAISLNITQKVHPVIWSLTSLPFDCTQALAVPKPIGGVVVFAVNSLLYLNQSVPPYGVALNSLTTGTTAFPLRTQEGVRITLDCAQATFISYDKMVISLKGGEIYVLTLITDGMRSVRAFHFDKAAASVLTTSMVTMEPGYLFLGSRLGNSLLLKYTEKLQEPPASAVREAADKEEPPSKKKRVDATAGWSAAGKSVPQDEVDEIEVYGSEAQSGTQLATYSFEVCDSILNIGPCANAAVGEPAFLSEEFQNSPEPDLEIVVCSGHGKNGALSVLQKSIRPQVVTTFELPGCYDMWTVIAPVRKEEEDNPKGEGTEQEPSTTPEADDDGRRHGFLILSREDSTMILQTGQEIMELDTSGFATQGPTVFAGNIGDNRYIVQVSPLGIRLLEGVNQLHFIPVDLGAPIVQCAVADPYVVIMSAEGHVTMFLLKSDSYGGRHHRLALHKPPLHHQSKVITLCLYRDLSGMFTTESRLGGARDELGGRSGPEAEGLGSETSPTVDDEEEMLYGDSGSLFSPSKEEARRSSQPPADRDPAPFRAEPTHWCLLVRENGTMEIYQLPDWRLVFLVKNFPVGQRVLVDSSFGQPTTQGEARREEATRQGELPLVKEVLLVALGSRQSRPYLLVHVDQELLIYEAFPHDSQLGQGNLKVRFKKVPHNINFREKKPKPSKKKAEGGGAEEGAGARGRVARFRYFEDIYGYSGVFICGPSPHWLLVTGRGALRLHPMAIDGPVDSFAPFHNVNCPRGFLYFNRQGELRISVLPAYLSYDAPWPVRKIPLRCTAHYVAYHVESKVYAVATSTNTPCARIPRMTGEEKEFETIERDERYIHPQQEAFSIQLISPVSWEAIPNARIELQEWEHVTCMKTVSLRSEETVSGLKGYVAAGTCLMQGEEVTCRGRILIMDVIEVVPEPGQPLTKNKFKVLYEKEQKGPVTALCHCNGHLVSAIGQKIFLWSLRASELTGMAFIDTQLYIHQMISVKNFILAADVMKSISLLRYQEESKTLSLVSRDAKPLEVYSVDFMVDNAQLGFLVSDRDRNLMVYMYLPEAKESFGGMRLLRRADFHVGAHVNTFWRTPCRGATEGLSKKSVVWENKHITWFATLDGGIGLLLPMQEKTYRRLLMLQNALTTMLPHHAGLNPRAFRMLHVDRRTLQNAVRNVLDGELLNRYLYLSTMERSELAKKIGTTPDIILDDLLETDRVTAHF
B3: CHERP (protein, UniProt Q8IWX8 1-916)
chain: MEMPLPPDDQELRNVIDKLAQFVARNGPEFEKMTMEKQKDNPKFSFLFGGEFYSYYKCKLALEQQQLICKQQTPELEPAATMPPLPQPPLAPAAPIPPAQGAPSMDELIQQSQWNLQQQEQHLLALRQEQVTAAVAHAVEQQMQKLLEETQLDMNEFDNLLQPIIDTCTKDAISAGKNWMFSNAKSPPHCELMAGHLRNRITADGAHFELRLHLIYLINDVLHHCQRKQARELLAALQKVVVPIYCTSFLAVEEDKQQKIARLLQLWEKNGYFDDSIIQQLQSPALGLGQYQATLINEYSSVVQPVQLAFQQQIQTLKTQHEEFVTSLAQQQQQQQQQQQQLQMPQMEAEVKATPPPPAPPPAPAPAPAIPPTTQPDDSKPPIQMPGSSEYEAPGGVQDPAAAGPRGPGPHDQIPPNKPPWFDQPHPVAPWGQQQPPEQPPYPHHQGGPPHCPPWNNSHEGMWGEQRGDPGWNGQRDAPWNNQPDAAWNSQFEGPWNSQHEQPPWGGGQREPPFRMQRPPHFRGPFPPHQQHPQFNQPPHPHNFNRFPPRFMQDDFPPRHPFERPPYPHRFDYPQGDFPAEMGPPHHHPGHRMPHPGINEHPPWAGPQHPDFGPPPHGFNGQPPHMRRQGPPHINHDDPSLVPNVPYFDLPAGLMAPLVKLEDHEYKPLDPKDIRLPPPMPPSERLLAAVEAFYSPPSHDRPRNSEGWEQNGLYEFFRAKMRARRRKGQEKRNSGPSRSRSRSKSRGRSSSRSNSRSSKSSGSYSRSRSRSCSRSYSRSRSRSRSRSRSSRSRSRSQSRSRSKSYSPGRRRRSRSRSPTPPSSAGLGSNSAPPIPDSRLGEENKGHQMLVKMGWSGSGGLGAKEQGIQDPIKGGDVRDKWDQYKGVGVALDDPYENYRRNKSYSFIARMKARDECK
B4: RBM17 (protein, UniProt Q96I25 1-401)
chain: MSLYDDLGVETSDSKTEGWSKNFKLLQSQLQVKKAALTQAKSQRTKQSTVLAPVIDLKRGGSSDDRQIVDTPPHVAAGLKDPVPSGFSAGEVLIPLADEYDPMFPNDYEKVVKRQREERQRQRELERQKEIEEREKRRKDRHEASGFARRPDPDSDEDEDYERERRKRSMGGAAIAPPTSLVEKDKELPRDFPYEEDSRPRSQSSKAAIPPPVYEEQDRPRSPTGPSNSFLANMGGTVAHKIMQKYGFREGQGLGKHEQGLSTALSVEKTSKRGGKIIVGDATEKDASKKSDSNPLTEILKCPTKVVLLRNMVGAGEVDEDLEVETKEECEKYGKVGKCVIFEIPGAPDDEAVRIFLEFERVESAIKAVVDLNGRYFGGRVVKACFYNLDKFRVLDLAEQV

No constants are given. Whether binding was seen depends on the method and setting. Binding seen in cells or lysates may run through a third protein. Here binding means that the protein was enriched with, or labelled near, the bait; the list need not be complete. Where a sequence is shown, tags or fusion partners need not be part of it.

For the assay, the target named is 3XMyc-RPRD1B wild type (full length) (human) (UniProt Q9NQG5). Nature of the assay: affinity purification with mass spectrometry; SILAC: tetracycline-induced 3XMyc-RPRD1B WT (heavy) and MT (light) in 293 Flp-In cells, anti-Myc immunoprecipitates from total lysate combined and analysed by MS.
For the molecule B1, the binding result is “binds”.

On to B2, for which the binding entry is recorded as “binds”.

In the case of B3, the binding result is reported as “binds”.

As for B4, the binding entry is recorded as “binds”.
